Test results from PMC7823470, “Arabidopsis Plant Natriuretic Peptide Is a Novel Interactor of Rubisco Activase” (Life, 2020).
Results are given in words; binding and its absence hold for the method and conditions named. Binding can be weak; no strength is given. Sequences can lack the tags named with a protein.

Protein sequences, listed by entry. Tags and fused reporters are not part of them. Lines headed by an entry give the natural chain unless they say otherwise; changes in a name come on top.
UniProt Q9ZV52: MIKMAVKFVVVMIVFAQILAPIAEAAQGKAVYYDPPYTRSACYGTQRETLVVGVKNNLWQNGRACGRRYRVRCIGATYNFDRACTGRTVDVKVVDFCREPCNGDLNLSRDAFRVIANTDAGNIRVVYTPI

Biological target: T1, purified recombinant N-terminally His-tagged rubisco activase (rRCA) (Arabidopsis thaliana) (UniProt P10896)
T1 sequence: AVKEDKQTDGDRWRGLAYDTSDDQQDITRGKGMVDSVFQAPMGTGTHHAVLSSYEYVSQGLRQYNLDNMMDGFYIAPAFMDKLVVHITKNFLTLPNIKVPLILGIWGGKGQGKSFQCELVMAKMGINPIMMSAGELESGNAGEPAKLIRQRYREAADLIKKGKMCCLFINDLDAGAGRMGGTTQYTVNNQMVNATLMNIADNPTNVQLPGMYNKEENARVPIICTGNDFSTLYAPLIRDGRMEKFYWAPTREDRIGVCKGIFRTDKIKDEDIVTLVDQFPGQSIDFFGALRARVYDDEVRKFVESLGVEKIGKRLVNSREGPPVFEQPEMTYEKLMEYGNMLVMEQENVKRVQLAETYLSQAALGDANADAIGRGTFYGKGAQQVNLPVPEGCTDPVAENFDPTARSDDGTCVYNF
Assay: SPR; rRCA immobilised by amine coupling on a CM5 chip, rAtPNP-A as analyte, reference surface blank activated; Biacore T100, 20 °C; both purified

Substance: purified recombinant N-terminally His-tagged AtPNP-A (rAtPNP-A) (from UniProt Q9ZV52)
- binding: binds
